Experimental data published in publication PMC3640759 (Molecular and biochemical parasitology, 2013).

System: P. falciparum 3D7 strain stage III–V gametocytes
Test: alamarBlue gametocyte viability assay, 1,536-well plate format
Type: cell-based
Settings: Plasmodium falciparum, 3D7, 72 h, read-out: IC50 (gametocyte assay)

SMILES: Clc1ccccc1C(c1ccccc1)(c1ccccc1)n1ccnc1 [Clotrimazole]
- IC50: 2440 nM
